Data as given in the supplement of paper PMC4604168 (melanoma cell lines).
Some of the results follow. Single values are uncertain, as repeats are few or missing.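 Imaging used 1,536-well plates; nuclei positive for cleaved PARP by antibody were divided by total DNA-stained nuclei to yield the apoptosis fraction. Doses for screening kept most cells viable, and cell lines differ markedly in resting and induced cleaved-PARP levels.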

What was measured:
Experiment in all cases: cleaved PARP positive nuclei fraction relative to DMSO control; melanoma cells; higher = more apoptosis
Settings in all cases: library dose: low library concentration; 72 h
MZ2-MEL = test system: MZ2-MEL
MeWo = test system: MeWo
RPMI7951 = test system: RPMI7951
RVH-421 = test system: RVH-421
SkMel28 = test system: SkMel28
SkMel2 = test system: SkMel2
SkMel30 = test system: SkMel30
SkMel5 = test system: SkMel5
UACC257 = test system: UACC257
UACC62 = test system: UACC62

N.N.[Cl][Pt][Cl] [cisplatin] + Cc1cc(SCc2sc(-c3ccc(C(F)(F)F)c(F)c3)nc2C)ccc1OCC(=O)O [GW0742] (first compound 1.6 µM, partner dose 2 µM)
cleaved PARP positive nuclei fraction (MZ2-MEL): 155%
cleaved PARP positive nuclei fraction (MeWo): 127%
cleaved PARP positive nuclei fraction (RPMI7951): 66.8%
cleaved PARP positive nuclei fraction (RVH-421): 131%
cleaved PARP positive nuclei fraction (SkMel28): 105%
cleaved PARP positive nuclei fraction (SkMel2): 58.6%
cleaved PARP positive nuclei fraction (SkMel30): 27.2%
cleaved PARP positive nuclei fraction (SkMel5): 153%
cleaved PARP positive nuclei fraction (UACC257): 170%
cleaved PARP positive nuclei fraction (UACC62): 112%

CC(C)C[C@H](NC(=O)[C@H](Cc1ccccc1)NC(=O)c1cnccn1)B(O)O [Bortezomib] + C/C(O)=C(\C#N)C(=O)Nc1cc(Br)ccc1Br [LFM-A13] (first compound 0.001 µM, partner dose 2 µM)
cleaved PARP positive nuclei fraction (MZ2-MEL): 202%
cleaved PARP positive nuclei fraction (MeWo): 67.2%
cleaved PARP positive nuclei fraction (RPMI7951): 30.8%
cleaved PARP positive nuclei fraction (RVH-421): 57.3%
cleaved PARP positive nuclei fraction (SkMel28): 163%
cleaved PARP positive nuclei fraction (SkMel2): 35%
cleaved PARP positive nuclei fraction (SkMel30): 103%
cleaved PARP positive nuclei fraction (SkMel5): 72.9%
cleaved PARP positive nuclei fraction (UACC257): 247%
cleaved PARP positive nuclei fraction (UACC62): 218%

C=C(c1ccc(C(=O)O)cc1)c1cc2c(cc1C)C(C)(C)CCC2(C)C [Bexarotene] + C/C(O)=C(\C#N)C(=O)Nc1cc(Br)ccc1Br [LFM-A13] (first compound 2 µM, partner dose 2 µM)
cleaved PARP positive nuclei fraction (MZ2-MEL): 97.5%
cleaved PARP positive nuclei fraction (MeWo): 91.5%
cleaved PARP positive nuclei fraction (RPMI7951): 41.6%
cleaved PARP positive nuclei fraction (RVH-421): 78.9%
cleaved PARP positive nuclei fraction (SkMel28): 252%
cleaved PARP positive nuclei fraction (SkMel2): 97.6%
cleaved PARP positive nuclei fraction (SkMel30): 83.5%
cleaved PARP positive nuclei fraction (SkMel5): 83%
cleaved PARP positive nuclei fraction (UACC257): 87.3%
cleaved PARP positive nuclei fraction (UACC62): 130%

C[As](C)SC[C@H](NC(=O)CC[C@H](N)C(=O)O)C(=O)NCC(=O)O [Darinaparsin] + COc1cc2c(Oc3ccc4[nH]c(C)cc4c3F)ncnc2cc1OCCCN1CCCC1 [cediranib] (first compound 0.4 µM, partner dose 0.4 µM)
cleaved PARP positive nuclei fraction (MZ2-MEL): 80%
cleaved PARP positive nuclei fraction (MeWo): 20.8%
cleaved PARP positive nuclei fraction (RPMI7951): 147%
cleaved PARP positive nuclei fraction (RVH-421): 118%
cleaved PARP positive nuclei fraction (SkMel28): 61.2%
cleaved PARP positive nuclei fraction (SkMel2): 127%
cleaved PARP positive nuclei fraction (SkMel30): 60%
cleaved PARP positive nuclei fraction (SkMel5): 189%
cleaved PARP positive nuclei fraction (UACC257): 136%
cleaved PARP positive nuclei fraction (UACC62): 52.2%

C[C@@H](Oc1cc(-c2cnn(C3CCNCC3)c2)cnc1N)c1c(Cl)ccc(F)c1Cl [Crizotinib] + Cc1cc(SCc2sc(-c3ccc(C(F)(F)F)c(F)c3)nc2C)ccc1OCC(=O)O [GW0742] (first compound 0.2 µM, partner dose 2 µM)
cleaved PARP positive nuclei fraction (MZ2-MEL): 58.4%
cleaved PARP positive nuclei fraction (MeWo): 124%
cleaved PARP positive nuclei fraction (RPMI7951): 65.4%
cleaved PARP positive nuclei fraction (RVH-421): 39.9%
cleaved PARP positive nuclei fraction (SkMel28): 204%
cleaved PARP positive nuclei fraction (SkMel2): 154%
cleaved PARP positive nuclei fraction (SkMel30): 46%
cleaved PARP positive nuclei fraction (SkMel5): 159%
cleaved PARP positive nuclei fraction (UACC257): 132%
cleaved PARP positive nuclei fraction (UACC62): 93.9%

CS(=O)(=O)CCNCc1ccc(-c2ccc3ncnc(Nc4ccc(OCc5cccc(F)c5)c(Cl)c4)c3c2)o1 [lapatinib] + Cc1cc(SCc2sc(-c3ccc(C(F)(F)F)c(F)c3)nc2C)ccc1OCC(=O)O [GW0742] (first compound 0.8 µM, partner dose 2 µM)
cleaved PARP positive nuclei fraction (MZ2-MEL): 161%
cleaved PARP positive nuclei fraction (MeWo): 155%
cleaved PARP positive nuclei fraction (RPMI7951): 119%
cleaved PARP positive nuclei fraction (RVH-421): 108%
cleaved PARP positive nuclei fraction (SkMel28): 126%
cleaved PARP positive nuclei fraction (SkMel2): 93%
cleaved PARP positive nuclei fraction (SkMel30): 23.2%
cleaved PARP positive nuclei fraction (SkMel5): 142%
cleaved PARP positive nuclei fraction (UACC257): 193%
cleaved PARP positive nuclei fraction (UACC62): 178%

Cn1cnc2c(F)c(Nc3ccc(Br)cc3Cl)c(C(=O)NOCCO)cc21 [selumetinib] + C/C(O)=C(\C#N)C(=O)Nc1cc(Br)ccc1Br [LFM-A13] (first compound 0.015 µM, partner dose 2 µM)
cleaved PARP positive nuclei fraction (MZ2-MEL): 285%
cleaved PARP positive nuclei fraction (MeWo): 148%
cleaved PARP positive nuclei fraction (RPMI7951): 103%
cleaved PARP positive nuclei fraction (RVH-421): 83.8%
cleaved PARP positive nuclei fraction (SkMel28): 361%
cleaved PARP positive nuclei fraction (SkMel2): 166%
cleaved PARP positive nuclei fraction (SkMel30): 81.8%
cleaved PARP positive nuclei fraction (SkMel5): 217%
cleaved PARP positive nuclei fraction (UACC257): 211%
cleaved PARP positive nuclei fraction (UACC62): 206%

N.N.[Cl][Pt][Cl] [cisplatin] + O=C(O)C(=O)Nc1sc2c(c1C(=O)O)CCNC2 [TCS401] (first compound 1.6 µM, partner dose 1.66667 µM)
cleaved PARP positive nuclei fraction (MZ2-MEL): 402%
cleaved PARP positive nuclei fraction (MeWo): 113%
cleaved PARP positive nuclei fraction (RPMI7951): 34.7%
cleaved PARP positive nuclei fraction (RVH-421): 204%
cleaved PARP positive nuclei fraction (SkMel28): 161%
cleaved PARP positive nuclei fraction (SkMel2): 210%
cleaved PARP positive nuclei fraction (SkMel30): 211%
cleaved PARP positive nuclei fraction (SkMel5): 82.1%
cleaved PARP positive nuclei fraction (UACC257): 89.3%
cleaved PARP positive nuclei fraction (UACC62): 307%

Nc1ccn([C@@H]2O[C@H](CO)[C@@H](O)C2(F)F)c(=O)n1 [gemcitabine] + O=C(Oc1ccc([N+](=O)[O-])cc1)N1CCC(C(O)(c2ccc3c(c2)OCO3)c2ccc3c(c2)OCO3)CC1 [JZL184] (first compound 0.0004 µM, partner dose 1 µM)
cleaved PARP positive nuclei fraction (MZ2-MEL): 152%
cleaved PARP positive nuclei fraction (MeWo): 44.1%
cleaved PARP positive nuclei fraction (RPMI7951): 36.2%
cleaved PARP positive nuclei fraction (RVH-421): 32.6%
cleaved PARP positive nuclei fraction (SkMel28): 135%
cleaved PARP positive nuclei fraction (SkMel2): 86.9%
cleaved PARP positive nuclei fraction (SkMel30): 83.5%
cleaved PARP positive nuclei fraction (SkMel5): 89.7%
cleaved PARP positive nuclei fraction (UACC257): 84.2%
cleaved PARP positive nuclei fraction (UACC62): 35.8%

N.N.[Cl][Pt][Cl] [cisplatin] + CN(NC(=O)CC(=O)NN(C)C(=S)c1ccccc1)C(=S)c1ccccc1 [STA4783] (first compound 1.6 µM, partner dose 0.006 µM)
cleaved PARP positive nuclei fraction (MZ2-MEL): 107%
cleaved PARP positive nuclei fraction (MeWo): 62.9%
cleaved PARP positive nuclei fraction (RPMI7951): 226%
cleaved PARP positive nuclei fraction (RVH-421): 395%
cleaved PARP positive nuclei fraction (SkMel28): 119%
cleaved PARP positive nuclei fraction (SkMel2): 66.8%
cleaved PARP positive nuclei fraction (SkMel30): 66.7%
cleaved PARP positive nuclei fraction (SkMel5): 89.5%
cleaved PARP positive nuclei fraction (UACC257): 111%
cleaved PARP positive nuclei fraction (UACC62): 30.9%

N.N.[Cl][Pt][Cl] [cisplatin] + COC(=O)c1sccc1S(=O)(=O)Nc1ccc(Nc2ccccc2)cc1OC [GSK0660] (first compound 1.6 µM, partner dose 1 µM)
cleaved PARP positive nuclei fraction (MZ2-MEL): 89.4%
cleaved PARP positive nuclei fraction (MeWo): 79.1%
cleaved PARP positive nuclei fraction (RPMI7951): 139%
cleaved PARP positive nuclei fraction (RVH-421): 63.8%
cleaved PARP positive nuclei fraction (SkMel28): 89.6%
cleaved PARP positive nuclei fraction (SkMel2): 83.1%
cleaved PARP positive nuclei fraction (SkMel30): 37.3%
cleaved PARP positive nuclei fraction (SkMel5): 149%
cleaved PARP positive nuclei fraction (UACC257): 239%
cleaved PARP positive nuclei fraction (UACC62): 98.5%
